{"sequences": {"note": "Chains of the proteins cited; added tags and fusions are not shown. Residues count along the entry.", "UniProt P02769, 25-607": "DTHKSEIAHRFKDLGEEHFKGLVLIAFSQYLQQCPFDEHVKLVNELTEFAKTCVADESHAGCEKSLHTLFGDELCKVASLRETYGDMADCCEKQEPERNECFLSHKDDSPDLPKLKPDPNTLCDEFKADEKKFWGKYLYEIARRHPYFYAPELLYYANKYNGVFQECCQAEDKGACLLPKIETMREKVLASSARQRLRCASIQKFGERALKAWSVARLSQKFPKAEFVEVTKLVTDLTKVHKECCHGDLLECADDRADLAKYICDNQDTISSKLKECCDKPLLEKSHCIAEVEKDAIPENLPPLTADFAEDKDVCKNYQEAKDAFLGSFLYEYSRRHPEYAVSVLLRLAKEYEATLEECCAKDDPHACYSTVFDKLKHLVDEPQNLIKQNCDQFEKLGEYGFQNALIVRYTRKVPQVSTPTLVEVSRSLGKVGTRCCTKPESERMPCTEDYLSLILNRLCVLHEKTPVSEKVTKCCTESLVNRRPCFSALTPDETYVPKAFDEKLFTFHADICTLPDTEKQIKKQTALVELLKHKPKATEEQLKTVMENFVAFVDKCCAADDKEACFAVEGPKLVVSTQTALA"}, "source": "paper PMC9110341", "about": "“A nucleotide-sensing oligomerization mechanism that controls NrdR-dependent transcription of ribonucleotide reductases” (Nature Communications, 2022)", "assay_in_all_cases": "MST", "key": {"[1]": {"biological_target": "T1, NrdR (Streptomyces coelicolor M145) (UniProt O69980)", "T1 sequence (looked up, limits assumed)": "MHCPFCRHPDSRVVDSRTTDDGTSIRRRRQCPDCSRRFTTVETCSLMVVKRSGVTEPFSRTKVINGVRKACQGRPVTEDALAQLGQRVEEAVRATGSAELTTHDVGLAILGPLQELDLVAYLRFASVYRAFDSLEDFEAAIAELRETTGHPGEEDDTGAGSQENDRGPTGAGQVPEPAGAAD", "conditions": "MST: 25 mM Tris-HCl pH 7.6, 150 mM NaCl, 10 mM MgCl2, 5% glycerol, 1 mM DTT, 0.05% Tween-20, nucleotides 1 mM each, 10 nM Cy5-dsDNA, room temperature, recombinant protein, protein details: C-terminal His6 (pET30a); for binding signal (fold lower affinity than wild-type DNA): 1 mM dATP + 1 mM ATP"}, "[2]": {"biological_target": "BSA (UniProt P02769)", "conditions": "ATP + dATP; MST: 25 mM Tris-HCl pH 7.6, 150 mM NaCl, 10 mM MgCl2, 5% glycerol, 1 mM DTT, 0.05% Tween-20, nucleotides 1 mM each, 10 nM Cy5-dsDNA, room temperature; commercial protein; label: 5'-Cy5 on sense strand"}, "[3]": {"biological_target": "T2, NrdR D15A (Streptomyces coelicolor M145) (UniProt O69980)", "T2 sequence (looked up, limits assumed)": "T1 sequence (looked up, limits assumed) with D15A", "conditions": "1 mM dATP + 1 mM ATP, 10- to 100-fold stronger than wild-type NrdR on mutant DNAs; MST: 25 mM Tris-HCl pH 7.6, 150 mM NaCl, 10 mM MgCl2, 5% glycerol, 1 mM DTT, 0.05% Tween-20, nucleotides 1 mM each, 10 nM Cy5-dsDNA, room temperature; recombinant protein; protein details: C-terminal His6 (pET30a); label: 5'-Cy5 on sense strand"}, "[4]": {"biological_target": "T3, NrdR R17A (Streptomyces coelicolor M145) (UniProt O69980)", "T3 sequence (looked up, limits assumed)": "T1 sequence (looked up, limits assumed) with R17A", "conditions": "1 mM dATP + 1 mM ATP; MST: 25 mM Tris-HCl pH 7.6, 150 mM NaCl, 10 mM MgCl2, 5% glycerol, 1 mM DTT, 0.05% Tween-20, nucleotides 1 mM each, 10 nM Cy5-dsDNA, room temperature; recombinant protein; protein details: C-terminal His6 (pET30a); label: 5'-Cy5 on sense strand"}}, "note": "Numbering of substitutions follows the chain as printed. For part of these data: No signal at the amounts used counts as a negative. For part of these data: At least one verdict rests on a figure or table, not on a statement of the authors. For part of these data: Construct, isoform or probe ends are uncertain for at least one entry. For part of these data: Where a protein sequence is shown, tags need not be part of it. For part of these data: The direction of at least one scale is not stated here."}
{"sequence": "CCGGGACACAACATCTGGGGGTGCTCGCGTCCCCCGGCACAAGATGTATGCTCATGC (double strand) [nrdAB promoter 57 bp, Cy5 antisense]", "values": [{"measurement": "Kd", "setting": "[1]; dATP only (fit 78 uM), label: 5'-Cy5 on antisense strand", "result": "> 19", "unit": "µM"}]}
{"sequence": "CCGGGACACAACATCTGGGGGTGCTCGCGTCCCCCGGCACAAGATGTATGCTCATGC (double strand) [nrdAB promoter 57 bp]", "values": [{"measurement": "binding result", "setting": "[2]", "result": "no binding"}, {"measurement": "Kd", "setting": "[1]; ADP + ATP (fit 18.96 uM), label: 5'-Cy5 on sense strand", "result": "> 10", "unit": "µM"}, {"measurement": "Kd", "setting": "[1]; AMP only, no plateau, judged non-specific, label: 5'-Cy5 on sense strand", "result": 5.39, "unit": "µM"}, {"measurement": "Kd", "setting": "[1]; ATP + dAMP, no plateau, judged non-specific, label: 5'-Cy5 on sense strand", "result": 9.37, "unit": "µM"}, {"measurement": "Kd", "setting": "[1]; cyclic di-AMP only, no plateau, judged non-specific, label: 5'-Cy5 on sense strand", "result": 6.68, "unit": "µM"}, {"measurement": "Kd", "setting": "[1]; dADP + ADP (fit 10.65 uM), label: 5'-Cy5 on sense strand", "result": "> 10", "unit": "µM"}, {"measurement": "Kd", "setting": "[1]; dADP + ATP (fit 96 uM), label: 5'-Cy5 on sense strand", "result": "> 19", "unit": "µM"}, {"measurement": "Kd", "setting": "[1]; dADP only (fit 10.2 uM), label: 5'-Cy5 on sense strand", "result": "> 10", "unit": "µM"}, {"measurement": "Kd", "setting": "[1]; dAMP only, no plateau, judged non-specific, label: 5'-Cy5 on sense strand", "result": 4.07, "unit": "µM"}, {"measurement": "Kd", "setting": "[1]; dATP only (fit 11.2 uM, biphasic), label: 5'-Cy5 on sense strand", "result": "> 10", "unit": "µM"}, {"measurement": "Kd", "setting": "[1]; no nucleotide (fit 11.3 uM, no plateau), label: 5'-Cy5 on sense strand", "result": "> 10", "unit": "µM"}]}
{"sequence": "GCCAATCCCCACATCTACTGGTTGGATAGCGTGAGCAGCCCACAAGTTCTGGTCCCC (double strand) [nrdRJ C18/C49]", "values": [{"measurement": "binding result", "setting": "[3]", "result": "binds"}]}
{"sequence": "GCCAATCCCCACATCTAGTGGTTGGATAGCGTGAGCAGCCCACAAGTTGTGGTCCCC (double strand) [nrdRJ promoter 57 bp]", "values": [{"measurement": "Kd", "setting": "[1]; cyclic di-AMP + ATP (fit 21.6 uM, oligo nrdRJ by file order), label: 5'-Cy5 on sense strand", "result": "> 19", "unit": "µM"}, {"measurement": "Kd", "setting": "[1]; no nucleotide (fit 29.3 uM), label: 5'-Cy5 on sense strand", "result": "> 19", "unit": "µM"}]}
{"sequence": "GCCAATCCCCACATCTAGTGGTTGGATAGCGTGAGCAGCTCACAAGTTTTGGTCCCC (double strand) [nrdRJ T9/T18]", "values": [{"measurement": "binding signal (fold lower affinity than wild-type DNA)", "setting": "[1]; label: 5'-Cy5 on sense strand", "result": "> 100"}, {"measurement": "binding result", "setting": "[3]", "result": "binds"}, {"measurement": "binding result", "setting": "[4]", "result": "no binding"}]}
{"sequence": "GCCAATCCGCACATCTACTGGTTGGATAGCGTGAGCAGCCCACAAGTTGTGGTCCCC (double strand) [nrdRJ G9/C18]", "values": [{"measurement": "binding result", "setting": "[3]", "result": "binds"}]}
{"sequence": "GCCAATCCTCACATCTATTGGTTGGATAGCGTGAGCAGCCCACAAGTTGTGGTCCCC (double strand) [nrdRJ T40/T49]", "values": [{"measurement": "binding signal (fold lower affinity than wild-type DNA)", "setting": "[1]; label: 5'-Cy5 on sense strand", "result": "> 100"}, {"measurement": "binding result", "setting": "[3]", "result": "binds"}, {"measurement": "binding result", "setting": "[4]", "result": "no binding"}]}
{"sequence": "GCCAATCCTCACATCTATTGGTTGGATAGCGTGAGCAGCTCACAAGTTTTGGTCCCC (double strand) [nrdRJ T9/T18/T40/T49]", "values": [{"measurement": "binding signal (fold lower affinity than wild-type DNA)", "setting": "[1]; label: 5'-Cy5 on sense strand", "result": "> 100"}, {"measurement": "binding result", "setting": "[3]", "result": "binds"}]}
